# Measurements reported in US20250283871A1, “COMPOSITIONS AND METHODS FOR MODULATING THE INTERACTION BETWEEN SS18-SSX FUSION ONCOPROTEIN AND NUCLEOSOMES” (Dana-Farber Cancer Institute, Inc., priority 2020, published 2025).
# Test system: BAF complex subunits and histone proteins
# Experiment: Mass spectrometry proteomics of purified HA-SS18 WT and HA-SS18-SSX1 complexes (Tables 5A-5E)
# Design: species or system human
# Settings: HA-SS18WT_NE_peptides: proteins co-purified with HA-SS18 WT from nuclear extract (NE), HEK-293T
Molecule,Total (peptides),Unique (peptides)
"PIGU (protein, UniProt Q9H490 2-435, looked up) GPI-anchor transamidase …: AAPLVLVLVVAVTVRAALFRSSLAEFISERVEVVSPLSSWKRVVEGLSLLDLGVSPYSGAVFHETPLIIYLFHFLIDYAELVFMITDALTAIALYFAIQDFNKVVFKKQKLLLELDQYAPDVAELIRTPMEMRYIPLKVALFYLLNPYTILSCVAKSTCAINNTLIAFFILTTIKGSAFLSAIFLALATYQSLYPLTLFVPGLLYLLQRQYIPVKMKSKAFWIFSWEYAMMYVGSLVVIICLSFFLLSSWDFIPAVYGFILSVPDLTPNIGLFWYFFAEMFEHFSLFFVCVFQINVFFYTIPLAIKLKEHPIFFMFIQIAVIAIFKSYPTVGDVALYMAFFPVWNHLYRFLRNIFVLTCIIIVCSLLFPVLWHLWIYAGSANSNFFYAITLTFNVGQILLISDYFYAFLRREYYLTHGLYLTAKDGTEAMLVLK",1,1
"QTRT2 (protein, UniProt Q9H974 1-415, looked up) Queuine …: MKLSLTKVVNGCRLGKIKNLGKTGDHTMDIPGCLLYTKTGSAPHLTHHTLHNIHGVPAMAQLTLSSLAEHHEVLTEYKEGVGKFIGMPESLLYCSLHDPVSPCPAGYVTNKSVSVWSVAGRVEMTVSKFMAIQKALQPDWFQCLSDGEVSCKEATSIKRVRKSVDRSLLFLDNCLRLQEESEVLQKSVIIGVIEGGDVMEERLRSARETAKRPVGGFLLDGFQGNPTTLEARLRLLSSVTAELPEDKPRLISGVSRPDEVLECIERGVDLFESFFPYQVTERGCALTFSFDYQPNPEETLLQQNGTQEEIKCMDQIKKIETTGCNQEITSFEINLKEKKYQEDFNPLVRGCSCYCCKNHTRAYIHHLLVTNELLAGVLLMMHNFEHYFGFFHYIREALKSDKLAQLKELIHRQAS",1,1
"QPCTL (protein, UniProt Q9NXS2 1-382, looked up) Glutaminyl-peptide …: MRSGGRGRPRLRLGERGLMEPLLPPKRRLLPRVRLLPLLLALAVGSAFYTIWSGWHRRTEELPLGRELRVPLIGSLPEARLRRVVGQLDPQRLWSTYLRPLLVVRTPGSPGNLQVRKFLEATLRSLTAGWHVELDPFTASTPLGPVDFGNVVATLDPRAARHLTLACHYDSKLFPPGSTPFVGATDSAVPCALLLELAQALDLELSRAKKQAAPVTLQLLFLDGEEALKEWGPKDSLYGSRHLAQLMESIPHSPGPTRIQAIELFMLLDLLGAPNPTFYSHFPRTVRWFHRLRSIEKRLHRLNLLQSHPQEVMYFQPGEPFGSVEDDHIPFLRRGVPVLHLISTPFPAVWHTPADTEVNLHPPTVHNLCRILAVFLAEYLGL",1,1
"NCAPD3 (protein, UniProt P42695 1-1498, looked up) Condensin-2 complex subunit D3: MVALRGLGSGLQPWCPLDLRLEWVDTVWELDFTETEPLDPSIEAEIIETGLAAFTKLYESLLPFATGEHGSMESIWTFFIENNVSHSTLVALFYHFVQIVHKKNVSVQYREYGLHAAGLYFLLLEVPGSVANQVFHPVMFDKCIQTLKKSWPQESNLNRKRKKEQPKSSQANPGRHRKRGKPPRREDIEMDEIIEEQEDENICFSARDLSQIRNAIFHLLKNFLRLLPKFSLKEKPQCVQNCIEVFVSLTNFEPVLHECHVTQARALNQAKYIPELAYYGLYLLCSPIHGEGDKVISCVFHQMLSVILMLEVGEGSHRAPLAVTSQVINCRNQAVQFISALVDELKESIFPVVRILLQHICAKVVDKSEYRTFAAQSLVQLLSKLPCGEYAMFIAWLYKYSRSSKIPHRVFTLDVVLALLELPEREVDNTLSLEHQKFLKHKFLVQEIMFDRCLDKAPTVRSKALSSFAHCLELTVTSASESILELLINSPTFSVIESHPGTLLRNSSAFSYQRQTSNRSEPSGEINIDSSGETVGSGERCVMAMLRRRIRDEKTNVRKSALQVLVSILKHCDVSGMKEDLWILQDQCRDPAVSVRKQALQSLTELLMAQPRCVQIQKAWLRGVVPVVMDCESTVQEKALEFLDQLLLQNIRHHSHFHSGDDSQVLAWALLTLLTTESQELSRYLNKAFHIWSKKEKFSPTFINNVISHTGTEHSAPAWMLLSKIAGSSPRLDYSRIIQSWEKISSQQNPNSNTLGHILCVIGHIAKHLPKSTRDKVTDAVKCKLNGFQWSLEVISSAVDALQRLCRASAETPAEEQELLTQVCGDVLSTCEHRLSNIVLKENGTGNMDEDLLVKYIFTLGDIAQLCPARVEKRIFLLIQSVLASSADADHSPSSQGSSEAPASQPPPQVRGSVMPSVIRAHAIITLGKLCLQHEDLAKKSIPALVRELEVCEDVAVRNNVIIVMCDLCIRYTIMVDKYIPNISMCLKDSDPFIRKQTLILLTNLLQEEFVKWKGSLFFRFVSTLIDSHPDIASFGEFCLAHLLLKRNPVMFFQHFIECIFHFNNYEKHEKYNKFPQSEREKRLFSLKGKSNKERRMKIYKFLLEHFTDEQRFNITSKICLSILACFADGILPLDLDASELLSDTFEVLSSKEIKLLAMRSKPDKDLLMEEDDMALANVVMQEAQKKLISQVQKRNFIENIIPIIISLKTVLEKNKIPALRELMHYLREVMQDYRDELKDFFAVDKQLASELEYDMKKYQEQLVQEQELAKHADVAGTAGGAEVAPVAQVALCLETVPVPAGQENPAMSPAVSQPCTPRASAGHVAVSSPTPETGPLQRLLPKARPMSLSTIAILNSVKKAVESKSRHRSRSLGVLPFTLNSGSPEKTCSQVSSYSLEQESNGEIEHVTKRAISTPEKSISDVTFGAGVSYIGTPRTPSSAKEKIEGRSQGNDILCLSLPDKPPPQPQQWNVRSPARNKDTPACSRRSLRKTPLKTAN",1,1
"TMEM126B (protein, UniProt Q8IUX1 2-230, looked up) Complex I assembly factor …: VVFGYEAGTKPRDSGVVPVGTEEAPKVFKMAASMHGQPSPSLEDAKLRRPMVIEIIEKNFDYLRKEMTQNIYQMATFGTTAGFSGIFSNFLFRRCFKVKHDALKTYASLATLPFLSTVVTDKLFVIDALYSDNISKENCVFRSSLIGIVCGVFYPSSLAFTKNGRLATKYHTVPLPPKGRVLIHWMTLCQTQMKLMAIPLVFQIMFGILNGLYHYAVFEETLEKTIHEE",1,1
"TMEM147 (protein, UniProt Q9BVK8 1-224, looked up) BOS complex subunit TMEM147: MTLFHFGNCFALAYFPYFITYKCSGLSEYNAFWKCVQAGVTYLFVQLCKMLFLATFFPTWEGGIYDFIGEFMKASVDVADLIGLNLVMSRNAGKGEYKIMVAALGWATAELIMSRCIPLWVGARGIEFDWKYIQMSIDSNISLVHYIVASAQVWMITRYDLYHTFRPAVLLLMFLSVYKAFVMETFVHLCSLGSWAALLARAVVTGLLALSTLALYVAVVNVHS",1,1
"RAB10 (protein, UniProt P61026 1-200, looked up) Ras-related protein Rab-10: MAKKTYDLLFKLLLIGDSGVGKTCVLFRFSDDAFNTTFISTIGIDFKIKTVELQGKKIKLQIWDTAGQERFHTITTSYYRGAMGIMLVYDITNGKSFENISKWLRNIDEHANEDVERMLLGNKCDMDDKRVVPKGKGEQIAREHGIRFFETSAKANINIEKAFLTLAEDILRKTPVKEPNSENVDISSGGGVTGWKSKCC",1,1
"MMAA (protein, UniProt Q8IVH4 66-418, looked up) Methylmalonic aciduria type A …: CVQTTLKDHTEGLSDKEQRFVDKLYTGLIQGQRACLAEAITLVESTHSRKKELAQVLLQKVLLYHREQEQSNKGKPLAFRVGLSGPPGAGKSTFIEYFGKMLTERGHKLSVLAVDPSSCTSGGSLLGDKTRMTELSRDMNAYIRPSPTRGTLGGVTRTTNEAILLCEGAGYDIILIETVGVGQSEFAVADMVDMFVLLLPPAGGDELQGIKRGIIEMADLVAVTKSDGDLIVPARRIQAEYVSALKLLRKRSQVWKPKVIRISARSGEGISEMWDKMKDFQDLMLASGELTAKRRKQQKVWMWNLIQESVLEHFRTHPTVREQIPLLEQKVLIGALSPGLAADFLLKAFKSRD",1,1
"SERAC1 (protein, UniProt Q96JX3 1-654, looked up) Protein SERAC1: MSLAAYCVICCRRIGTSTSPPKSGTHWRDIRNIIKFTGSLILGGSLFLTYEVLALKKAVTLDTQVVEREKMKSYIYVHTVSLDKGENHGIAWQARKELHKAVRKVLATSAKILRNPFADPFSTVDIEDHECAVWLLLRKSKSDDKTTRLEAVREMSETHHWHDYQYRIIAQACDPKTLIGLARSEESDLRFFLLPPPLPSLKEDSSTEEELRQLLASLPQTELDECIQYFTSLALSESSQSLAAQKGGLWCFGGNGLPYAESFGEVPSATVEMFCLEAIVKHSEISTHCDKIEANGGLQLLQRLYRLHKDCPKVQRNIMRVIGNMALNEHLHSSIVRSGWVSIMAEAMKSPHIMESSHAARILANLDRETVQEKYQDGVYVLHPQYRTSQPIKADVLFIHGLMGAAFKTWRQQDSEQAVIEKPMEDEDRYTTCWPKTWLAKDCPALRIISVEYDTSLSDWRARCPMERKSIAFRSNELLRKLRAAGVGDRPVVWISHSMGGLLVKKMLLEASTKPEMSTVINNTRGIIFYSVPHHGSRLAEYSVNIRYLLFPSLEVKELSKDSPALKTLQDDFLEFAKDKNFQVLNFVETLPTYIGSMIKLHVVPVESADLGIGDLIPVDVNHLNICKPKKKDAFLYQRTLQFIREALAKDLEN",1,1
"C3orf58 (protein, UniProt Q8NDZ4 36-430, looked up) Divergent protein kinase …: LASWQRNELTDRRFLQLNKCPACFGTSWCRRFLNGQVVFEAWGRLRLLDFLNVKNVYFAQYGEPREGGRRRVVLKRLGSQRELAQLDQSICKRATGRPRCDLLQAMPRTEFARLNGDVRLLTPEAVEGWSDLVHCPSQRLLDRLVRRYAETKDSGSFLLRNLKDSERMQLLLTLAFNPEPLVLQSFPSDEGWPFAKYLGACGRMVAVNYVGEELWSYFNAPWEKRVDLAWQLMEIAEQLTNNDFEFALYLLDVSFDNFAVGPRDGKVIIVDAENVLVADKRLIRQNKPENWDVWYESKFDDCDKEACLSFSKEILCARATVDHNYYAVCQNLLSRHATWRGTSGGLLHDPPSEIAKDGRLEALLDECANPKKRYGRFQAAKELREYLAQLSNNVR",1,1
